From paper PMC5577449
Read-outs that look alike come from different tables or passages of the source. No constants are given. Whether binding was seen depends on the method and setting. Binding seen in cells or lysates may run through a third protein. Some results given as binding are weak or reduced against the parent protein; the word gives no strength. For some assays here: Tags and fused reporters may be left off the sequences shown.

Protein sequences, listed by entry. Tags and fused reporters are not part of them.
UniProt P97454: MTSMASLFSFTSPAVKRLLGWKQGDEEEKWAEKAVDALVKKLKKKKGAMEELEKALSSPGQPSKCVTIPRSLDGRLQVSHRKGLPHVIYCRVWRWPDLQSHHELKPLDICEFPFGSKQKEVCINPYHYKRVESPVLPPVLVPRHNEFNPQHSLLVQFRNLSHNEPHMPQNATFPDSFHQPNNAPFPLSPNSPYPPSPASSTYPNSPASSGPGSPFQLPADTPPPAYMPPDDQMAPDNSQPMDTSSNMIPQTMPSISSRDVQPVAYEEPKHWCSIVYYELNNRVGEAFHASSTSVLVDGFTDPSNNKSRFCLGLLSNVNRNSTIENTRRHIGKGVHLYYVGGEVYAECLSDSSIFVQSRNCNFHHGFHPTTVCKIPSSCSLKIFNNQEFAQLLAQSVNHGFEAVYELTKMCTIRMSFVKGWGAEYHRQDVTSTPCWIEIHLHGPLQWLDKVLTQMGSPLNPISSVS
UniProt Q15797: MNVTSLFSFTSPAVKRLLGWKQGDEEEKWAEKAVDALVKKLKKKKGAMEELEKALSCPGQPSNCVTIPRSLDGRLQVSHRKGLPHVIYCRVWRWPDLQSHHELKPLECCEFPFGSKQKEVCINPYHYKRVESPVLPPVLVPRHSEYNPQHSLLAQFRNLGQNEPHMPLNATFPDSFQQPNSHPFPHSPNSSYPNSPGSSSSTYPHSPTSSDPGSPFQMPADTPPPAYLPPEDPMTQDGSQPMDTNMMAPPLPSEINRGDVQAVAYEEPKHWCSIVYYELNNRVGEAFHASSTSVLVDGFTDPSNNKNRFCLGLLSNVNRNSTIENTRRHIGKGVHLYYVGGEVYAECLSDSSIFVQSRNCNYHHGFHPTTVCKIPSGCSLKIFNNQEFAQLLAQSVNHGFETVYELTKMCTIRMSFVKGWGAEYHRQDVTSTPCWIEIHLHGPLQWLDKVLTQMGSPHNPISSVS
UniProt Q9HAU4: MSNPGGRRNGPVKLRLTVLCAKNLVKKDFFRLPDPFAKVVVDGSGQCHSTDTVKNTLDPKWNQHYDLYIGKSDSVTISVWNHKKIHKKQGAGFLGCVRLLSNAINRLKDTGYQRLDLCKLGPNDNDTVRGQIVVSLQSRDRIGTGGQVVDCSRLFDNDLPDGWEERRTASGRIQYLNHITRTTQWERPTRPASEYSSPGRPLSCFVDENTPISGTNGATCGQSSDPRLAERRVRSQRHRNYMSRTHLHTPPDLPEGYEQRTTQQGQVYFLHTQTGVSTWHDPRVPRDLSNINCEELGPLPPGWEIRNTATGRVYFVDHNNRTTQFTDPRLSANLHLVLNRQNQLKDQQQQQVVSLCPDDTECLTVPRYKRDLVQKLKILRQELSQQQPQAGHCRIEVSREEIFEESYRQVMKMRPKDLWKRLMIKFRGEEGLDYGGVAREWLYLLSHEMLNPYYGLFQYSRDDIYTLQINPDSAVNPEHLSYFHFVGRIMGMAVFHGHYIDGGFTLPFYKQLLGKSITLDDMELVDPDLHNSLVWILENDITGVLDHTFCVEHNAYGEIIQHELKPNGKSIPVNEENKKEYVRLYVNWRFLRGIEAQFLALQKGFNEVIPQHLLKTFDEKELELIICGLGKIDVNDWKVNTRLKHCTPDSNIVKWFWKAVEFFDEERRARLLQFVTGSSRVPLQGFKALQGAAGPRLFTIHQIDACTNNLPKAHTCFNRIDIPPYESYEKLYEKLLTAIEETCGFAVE
UniProt Q9HCE7: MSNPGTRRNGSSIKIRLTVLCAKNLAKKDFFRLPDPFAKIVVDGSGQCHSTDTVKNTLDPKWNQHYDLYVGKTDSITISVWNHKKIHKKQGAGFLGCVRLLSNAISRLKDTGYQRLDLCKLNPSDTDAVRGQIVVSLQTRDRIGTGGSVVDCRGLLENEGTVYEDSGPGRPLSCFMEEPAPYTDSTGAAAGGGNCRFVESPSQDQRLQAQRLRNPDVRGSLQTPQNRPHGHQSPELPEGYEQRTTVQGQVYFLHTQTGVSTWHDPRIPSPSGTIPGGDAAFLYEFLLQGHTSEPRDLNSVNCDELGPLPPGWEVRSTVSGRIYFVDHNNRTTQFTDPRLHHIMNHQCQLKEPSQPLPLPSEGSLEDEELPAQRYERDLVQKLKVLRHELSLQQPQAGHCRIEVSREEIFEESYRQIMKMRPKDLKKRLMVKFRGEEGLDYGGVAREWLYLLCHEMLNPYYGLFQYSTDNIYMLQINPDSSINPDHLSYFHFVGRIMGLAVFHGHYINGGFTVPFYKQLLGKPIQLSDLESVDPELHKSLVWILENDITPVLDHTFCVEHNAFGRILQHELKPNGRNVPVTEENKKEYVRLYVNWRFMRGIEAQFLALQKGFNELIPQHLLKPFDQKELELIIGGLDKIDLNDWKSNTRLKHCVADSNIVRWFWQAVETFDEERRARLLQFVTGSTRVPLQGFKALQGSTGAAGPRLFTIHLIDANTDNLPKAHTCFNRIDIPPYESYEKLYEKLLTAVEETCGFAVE

What was measured:
Experiment in all cases: co-IP; HEK293 cells transiently co-transfected; cell lysates incubated with anti-FLAG beads, washed, western blotting; in the experiments of Figures 8e-h and 10e,f the cells were treated for 8 h with MG132 before harvesting
[1] = target: FLAG-tagged Smad5 (mouse, wild-type) (mouse) (UniProt P97454)
[2] = target: FLAG-tagged Smad1 (human, wild-type) (human) (UniProt Q15797)
[3] = target: T1, FLAG-tagged ZC4H2 (wild-type, full-length mouse), bait of the reverse co-IP (mouse) (UniProt Q68FG0)
T1 sequence: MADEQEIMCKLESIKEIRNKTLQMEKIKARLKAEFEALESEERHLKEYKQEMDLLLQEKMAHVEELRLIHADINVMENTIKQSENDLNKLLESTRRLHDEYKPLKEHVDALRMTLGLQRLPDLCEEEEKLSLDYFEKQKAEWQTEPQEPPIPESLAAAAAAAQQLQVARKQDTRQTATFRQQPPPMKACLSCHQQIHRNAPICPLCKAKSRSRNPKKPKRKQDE

[4] = target: FLAG-tagged Smad5 (mouse, wild-type) (mouse) (UniProt P97454); remark: listed apart in the source
[5] = target: FLAG-tagged Smad1 (human, wild-type) (human) (UniProt Q15797); remark: listed apart in the source

Molecule	binding [4]	binding [5]	other results
Smurf2 (wild-type) (from UniProt Q9HAU4 1-748) (enzyme)	–	–	binding [1]: binds; binding [2]: binds
Smurf1 (wild-type) (from UniProt Q9HCE7 1-757) (enzyme)	–	–	binding [1]: binds
Smad5 (mouse), prey of the reverse co-IP (from UniProt P97454 1-465)	–	–	binding [3]: binds
Smad1 (human), prey of the reverse co-IP (from UniProt Q15797 1-465)	–	–	binding [3]: binds
myc-tagged ZC4H2 (wild-type, full-length mouse) (protein, UniProt Q68FG0-1 1-224) MADEQEIMCKLESIKEIRNKTLQMEKIKARLKAEFEALESEERHLKEYKQEMDLLLQEKMAHVEELRLIHADINVMENTIKQSENDLNKLLESTRRLHDEYKPLKEHVDALRMTLGLQRLPDLCEEEEKLSLDYFEKQKAEWQTEPQEPPIPESLAAAAAAAQQLQVARKQDTRQTATFRQQPPPMKACLSCHQQIHRNAPICPLCKAKSRSRNPKKPKRKQDE	binds	binds	–
myc-tagged ZC4H2 V63L (protein, UniProt Q68FG0-1 1-224) MADEQEIMCKLESIKEIRNKTLQMEKIKARLKAEFEALESEERHLKEYKQEMDLLLQEKMAHLEELRLIHADINVMENTIKQSENDLNKLLESTRRLHDEYKPLKEHVDALRMTLGLQRLPDLCEEEEKLSLDYFEKQKAEWQTEPQEPPIPESLAAAAAAAQQLQVARKQDTRQTATFRQQPPPMKACLSCHQQIHRNAPICPLCKAKSRSRNPKKPKRKQDE	binds	binds	–
myc-tagged ZC4H2 A200V (protein, UniProt Q68FG0-1 1-224) MADEQEIMCKLESIKEIRNKTLQMEKIKARLKAEFEALESEERHLKEYKQEMDLLLQEKMAHVEELRLIHADINVMENTIKQSENDLNKLLESTRRLHDEYKPLKEHVDALRMTLGLQRLPDLCEEEEKLSLDYFEKQKAEWQTEPQEPPIPESLAAAAAAAQQLQVARKQDTRQTATFRQQPPPMKACLSCHQQIHRNVPICPLCKAKSRSRNPKKPKRKQDE	binds	binds	–
myc-tagged ZC4H2 P201S (protein, UniProt Q68FG0-1 1-224) MADEQEIMCKLESIKEIRNKTLQMEKIKARLKAEFEALESEERHLKEYKQEMDLLLQEKMAHVEELRLIHADINVMENTIKQSENDLNKLLESTRRLHDEYKPLKEHVDALRMTLGLQRLPDLCEEEEKLSLDYFEKQKAEWQTEPQEPPIPESLAAAAAAAQQLQVARKQDTRQTATFRQQPPPMKACLSCHQQIHRNASICPLCKAKSRSRNPKKPKRKQDE	binds	binds	–
myc-tagged ZC4H2 R198Q (protein, UniProt Q68FG0-1 1-224) MADEQEIMCKLESIKEIRNKTLQMEKIKARLKAEFEALESEERHLKEYKQEMDLLLQEKMAHVEELRLIHADINVMENTIKQSENDLNKLLESTRRLHDEYKPLKEHVDALRMTLGLQRLPDLCEEEEKLSLDYFEKQKAEWQTEPQEPPIPESLAAAAAAAQQLQVARKQDTRQTATFRQQPPPMKACLSCHQQIHQNAPICPLCKAKSRSRNPKKPKRKQDE	binds	binds	–
myc-tagged ZC4H2 R213W (protein, UniProt Q68FG0-1 1-224) MADEQEIMCKLESIKEIRNKTLQMEKIKARLKAEFEALESEERHLKEYKQEMDLLLQEKMAHVEELRLIHADINVMENTIKQSENDLNKLLESTRRLHDEYKPLKEHVDALRMTLGLQRLPDLCEEEEKLSLDYFEKQKAEWQTEPQEPPIPESLAAAAAAAQQLQVARKQDTRQTATFRQQPPPMKACLSCHQQIHRNAPICPLCKAKSRSWNPKKPKRKQDE	binds	binds	–
